PubChem BioAssay AID1259425, University of Nebraska Medical Center | 2018
Test: 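Compare each knockdown with KSR1 silencing using changes in marker transcripts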 (primary screen). Cells: HCT116 human colon cancer cells. Reagent: siRNA pool against human genes, 50 nM siRNA. Detection: 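mRNA of six signature genes measured together by branched-DNA assay after 50 nM siRNA pool, blank removed, divided by geometric mean of two housekeeping genes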. Scale: BNIP3L mRNA: higher = more BNIP3L transcript after knockdown.
Shown is one part, drawn at random, of about 14,000 reagents tested. A reagent listed more than once was tested more than once; the source does not tell the runs apart. Not all columns of the deposit are shown. Not stated in the record: the time to read-out.

gene symbol	BNIP3L mRNA, set 1
LOX	0.0734
CTSV	0.107
DYRK3	0.0381
RGS16	0.19
PON3	0.112
RAB40A	0.0929
SEPTIN6	0.155
CYB5A	0.107
PGAM1	0.115
CACNA1F	0.194
TNFSF10	0.092
HLTF	0.0718
ADIRF	0.0821
CENPQ	0.212
CRB1	0.183
TERT	0.198
DGUOK	0.213
LILRA1	0.123
NSMCE3	0.183
SYNGR4	0.296
HEMK2	0.083
ZFPL1	0.221
TACR1	0.0925
DDO	0.122
PDZRN4	0.103
SEMA3E	0.122
KCNC2	0.111
LINC01101	0.141
KDELR3	0.0936
HBP1	0.0467
AOAH	0.165
ZXDA	0.248
ZIC1	0.118
KRI1	0.0914
IRF9	0.0717
PMM1	0.335
MAP4K4	0.09
LAX1	0.416
KCNQ1	0.1
AZI2	0.0933
CACNA1I	0.124
CDKN3	0.133
TEK	0.0995
PSME4	0.0801
GRK7	0.102
GRK7	0.166
FHL5	0.139
TPD52L1	0.11
PPP3R1	0.278
CAMK1G	0.0807

7 consecutive entries from above, for reference:
gene symbol	BNIP3L mRNA, set 1
TERT	0.198
DGUOK	0.213
LILRA1	0.123
NSMCE3	0.183
SYNGR4	0.296
HEMK2	0.083
ZFPL1	0.221
